This note sets out measurements from publication doi:10.1101/2024.03.20.585881.

The chains behind the UniProt entries cited, without tags or fusion partners.
UniProt O15169: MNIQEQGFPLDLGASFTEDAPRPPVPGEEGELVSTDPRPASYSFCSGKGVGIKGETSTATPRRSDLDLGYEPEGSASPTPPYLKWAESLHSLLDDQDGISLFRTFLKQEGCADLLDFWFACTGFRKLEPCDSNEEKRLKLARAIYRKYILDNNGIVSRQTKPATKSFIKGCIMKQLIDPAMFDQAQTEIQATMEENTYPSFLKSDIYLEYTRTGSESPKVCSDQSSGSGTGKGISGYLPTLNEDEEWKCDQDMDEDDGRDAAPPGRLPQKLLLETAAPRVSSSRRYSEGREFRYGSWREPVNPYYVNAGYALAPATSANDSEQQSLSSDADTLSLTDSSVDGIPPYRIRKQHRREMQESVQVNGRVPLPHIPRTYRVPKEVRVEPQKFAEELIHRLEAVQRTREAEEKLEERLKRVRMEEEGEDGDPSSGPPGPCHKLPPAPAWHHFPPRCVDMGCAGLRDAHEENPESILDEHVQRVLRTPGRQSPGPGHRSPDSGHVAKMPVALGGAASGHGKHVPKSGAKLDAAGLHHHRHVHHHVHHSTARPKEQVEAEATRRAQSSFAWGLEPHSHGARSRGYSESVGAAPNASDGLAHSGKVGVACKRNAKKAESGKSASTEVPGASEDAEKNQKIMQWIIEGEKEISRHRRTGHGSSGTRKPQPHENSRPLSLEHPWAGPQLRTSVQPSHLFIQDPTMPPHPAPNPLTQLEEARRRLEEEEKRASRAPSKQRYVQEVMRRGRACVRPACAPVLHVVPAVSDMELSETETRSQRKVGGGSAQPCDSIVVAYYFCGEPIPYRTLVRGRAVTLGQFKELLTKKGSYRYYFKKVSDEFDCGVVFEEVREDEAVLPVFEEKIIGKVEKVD
UniProt P25054: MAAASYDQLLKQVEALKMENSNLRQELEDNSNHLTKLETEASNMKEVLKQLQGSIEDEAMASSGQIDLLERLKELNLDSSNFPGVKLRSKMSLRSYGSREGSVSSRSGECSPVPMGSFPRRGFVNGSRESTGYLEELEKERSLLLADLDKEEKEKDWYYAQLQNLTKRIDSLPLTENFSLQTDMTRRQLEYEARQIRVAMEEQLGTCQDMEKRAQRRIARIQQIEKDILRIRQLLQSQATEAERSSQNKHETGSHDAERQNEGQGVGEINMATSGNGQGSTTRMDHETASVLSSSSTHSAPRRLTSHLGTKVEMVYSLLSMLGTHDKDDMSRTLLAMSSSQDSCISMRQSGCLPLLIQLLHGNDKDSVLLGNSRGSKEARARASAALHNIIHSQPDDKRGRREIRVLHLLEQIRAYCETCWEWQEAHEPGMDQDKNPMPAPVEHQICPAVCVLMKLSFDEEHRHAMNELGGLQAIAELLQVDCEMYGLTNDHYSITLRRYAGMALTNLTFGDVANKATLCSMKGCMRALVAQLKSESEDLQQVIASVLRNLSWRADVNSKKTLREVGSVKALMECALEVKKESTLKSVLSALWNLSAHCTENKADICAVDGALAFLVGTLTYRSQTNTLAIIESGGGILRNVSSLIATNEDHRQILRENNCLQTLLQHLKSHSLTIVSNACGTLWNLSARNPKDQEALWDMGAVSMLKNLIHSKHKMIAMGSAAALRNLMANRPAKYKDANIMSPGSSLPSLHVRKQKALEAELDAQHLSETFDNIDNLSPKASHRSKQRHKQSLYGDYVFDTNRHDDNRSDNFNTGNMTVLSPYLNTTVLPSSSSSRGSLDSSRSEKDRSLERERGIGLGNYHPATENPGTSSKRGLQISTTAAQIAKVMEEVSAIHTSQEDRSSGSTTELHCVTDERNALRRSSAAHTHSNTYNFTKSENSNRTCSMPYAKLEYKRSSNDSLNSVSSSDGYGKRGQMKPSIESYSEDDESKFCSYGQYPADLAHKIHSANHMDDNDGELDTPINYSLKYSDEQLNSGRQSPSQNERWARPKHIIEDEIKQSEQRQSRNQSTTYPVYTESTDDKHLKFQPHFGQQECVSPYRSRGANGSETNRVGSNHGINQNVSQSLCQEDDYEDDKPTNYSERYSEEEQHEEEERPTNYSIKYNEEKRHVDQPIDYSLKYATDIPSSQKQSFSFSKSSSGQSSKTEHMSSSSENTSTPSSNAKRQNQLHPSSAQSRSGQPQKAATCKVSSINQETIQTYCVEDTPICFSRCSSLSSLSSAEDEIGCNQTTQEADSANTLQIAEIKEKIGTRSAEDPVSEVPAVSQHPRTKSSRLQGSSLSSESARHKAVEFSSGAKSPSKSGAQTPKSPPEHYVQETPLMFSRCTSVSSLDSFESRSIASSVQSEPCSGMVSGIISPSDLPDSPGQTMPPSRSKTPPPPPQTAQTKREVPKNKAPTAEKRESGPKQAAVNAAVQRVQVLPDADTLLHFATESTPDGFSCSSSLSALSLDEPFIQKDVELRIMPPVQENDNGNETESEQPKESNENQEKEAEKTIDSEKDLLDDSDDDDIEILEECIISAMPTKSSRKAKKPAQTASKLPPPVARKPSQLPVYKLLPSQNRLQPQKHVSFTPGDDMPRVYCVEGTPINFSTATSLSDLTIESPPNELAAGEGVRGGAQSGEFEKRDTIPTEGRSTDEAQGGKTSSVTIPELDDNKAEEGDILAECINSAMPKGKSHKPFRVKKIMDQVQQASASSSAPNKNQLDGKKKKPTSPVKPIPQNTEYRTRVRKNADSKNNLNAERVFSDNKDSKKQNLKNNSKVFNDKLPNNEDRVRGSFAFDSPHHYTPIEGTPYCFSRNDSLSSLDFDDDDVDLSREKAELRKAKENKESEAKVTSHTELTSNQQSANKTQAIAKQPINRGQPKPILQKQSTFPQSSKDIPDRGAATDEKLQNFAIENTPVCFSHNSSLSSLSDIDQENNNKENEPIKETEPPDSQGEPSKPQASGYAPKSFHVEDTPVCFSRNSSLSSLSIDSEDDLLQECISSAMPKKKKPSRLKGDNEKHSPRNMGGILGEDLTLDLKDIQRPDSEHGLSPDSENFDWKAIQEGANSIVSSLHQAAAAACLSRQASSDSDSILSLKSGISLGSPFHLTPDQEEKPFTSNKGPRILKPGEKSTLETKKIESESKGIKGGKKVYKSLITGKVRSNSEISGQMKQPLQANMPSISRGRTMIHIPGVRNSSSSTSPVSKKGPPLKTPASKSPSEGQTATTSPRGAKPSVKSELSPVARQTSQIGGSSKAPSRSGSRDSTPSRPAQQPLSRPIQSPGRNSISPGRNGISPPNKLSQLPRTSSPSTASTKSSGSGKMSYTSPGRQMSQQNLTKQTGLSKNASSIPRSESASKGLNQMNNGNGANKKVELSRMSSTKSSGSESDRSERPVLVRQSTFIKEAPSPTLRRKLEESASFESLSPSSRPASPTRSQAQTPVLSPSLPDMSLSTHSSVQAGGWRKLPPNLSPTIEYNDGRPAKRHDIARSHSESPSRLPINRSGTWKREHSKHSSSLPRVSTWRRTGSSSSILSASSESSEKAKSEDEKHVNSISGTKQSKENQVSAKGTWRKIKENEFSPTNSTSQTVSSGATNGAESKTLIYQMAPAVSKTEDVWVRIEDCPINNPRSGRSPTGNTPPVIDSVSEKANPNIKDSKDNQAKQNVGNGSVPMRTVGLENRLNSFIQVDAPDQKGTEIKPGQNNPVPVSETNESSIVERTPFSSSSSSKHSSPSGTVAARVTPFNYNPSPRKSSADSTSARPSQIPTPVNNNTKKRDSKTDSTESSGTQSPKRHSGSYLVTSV

These are yes or no findings as the source states them, for the method shown. In cells and extracts the contact can be indirect. A yes stands for co-enrichment or nearness to the bait. Other partners may have been found.

Common to all, as to assay: affinity purification with mass spectrometry
One test concerns the target 3xFLAG-eGFP-Axin1 (UniProt O15169).
For another test, the target named is eGFP-Axin1 (UniProt O15169).
The target of test [1] is 3xFLAG-mScarlet-APC (human (endogenous in HEK293)) (UniProt P25054).

B1: AMER1 (protein, UniProt Q5JTC6 1-1135)
chain: METQKDEAAQAKGAAASGSTREQTAEKGAKNKAAEATEGPTSEPSSSGPGRLKKTAMKLFGGKKGICTLPSFFGGGRSKGSGKGSSKKGLSKSKTHDGLSEAAHGPEDVVSEGTGFSLPLPELPCQFPSSQSAHGALETGSRCKTSVAGATEKAVAEKFPSMPKPKKGLKGFFSSIRRHRKSKVTGAEQSEPGAKGPERVRARPHEHVSSAPQVPCFEETFQAPRKENANPQDAPGPKVSPTPEPSPPATEKMACKDPEKPMEACASAHVQPKPAPEASSLEEPHSPETGEKVVAGEVNPPNGPVGDPLSLLFGDVTSLKSFDSLTGCGDIIAEQDMDSMTDSMASGGQRANRDGTKRSSCLVTYQGGGEEMALPDDDDEEEEEEEEVELEEEEEEVKEEEEDDDLEYLWETAQMYPRPNMNLGYHPTTSPGHHGYMLLDPVRSYPGLAPGELLTPQSDQQESAPNSDEGYYDSTTPGFEDDSGEALGLVRRDCLPRDSYSGDALYEFYEPDDSLENSPPGDDCLYDLHGRSSEMFDPFLNFEPFLSSRPPGAMETEEERLVTIQKQLLYWELRREQLEAQEARAREAHAREAHAREAYTREAYGREAYAREAHTWEAHGREARTREAQAREVRCRETQVRETQARQEKPVLEYQMRPLGPSVMGLAAGVSGTSQISHRGITSAFPTTASSEPDWRDFRPLEKRYEGTCSKKDQSTCLMQLFQSDAMFEPDMQEANFGGSPRRAYPTYSPPEDPEEEEVEKEGNATVSFSQALVEFTSNGNLFSSMSCSSDSDSSFTQNLPELPPMVTFDIADVERDGEGKCEENPEFHNDEDLAASLEAFELGYYHKHAFNNYHSRFYQGLPWGVSSLPRYLGLPGLHPRPPPAAMALNRRSRSLDTAETLEMELSNSHLVQGYLESDELQAQQEDSDEEDEEEEEGEWSRDSPLSLYTEPPGAYDWPAWAPCPLPVGPGPAWISPNQLDRPSSQSPYRQATCCIPPMTMSISLSVPESRAPGESGPQLARPSHLHLPMGPCYNLQPQASQSMRARPRDVLLPVDEPSCSSSSGGFSPSPLPQAKPVGITHGIPQLPRVRPEHPQPQPTHYGPSSLDLSKERAEQGASLATSYSSTAMNGNLAK
Turning to B1, in the test with 3xFLAG-eGFP-Axin1, the binding entry is given as “binds”.

B2: JUP (ψ-catenin) (protein, UniProt P14923 1-745)
chain: MEVMNLMEQPIKVTEWQQTYTYDSGIHSGANTCVPSVSSKGIMEEDEACGRQYTLKKTTTYTQGVPPSQGDLEYQMSTTARAKRVREAMCPGVSGEDSSLLLATQVEGQATNLQRLAEPSQLLKSAIVHLINYQDDAELATRALPELTKLLNDEDPVVVTKAAMIVNQLSKKEASRRALMGSPQLVAAVVRTMQNTSDLDTARCTTSILHNLSHHREGLLAIFKSGGIPALVRMLSSPVESVLFYAITTLHNLLLYQEGAKMAVRLADGLQKMVPLLNKNNPKFLAITTDCLQLLAYGNQESKLIILANGGPQALVQIMRNYSYEKLLWTTSRVLKVLSVCPSNKPAIVEAGGMQALGKHLTSNSPRLVQNCLWTLRNLSDVATKQEGLESVLKILVNQLSVDDVNVLTCATGTLSNLTCNNSKNKTLVTQNSGVEALIHAILRAGDKDDITEPAVCALRHLTSRHPEAEMAQNSVRLNYGIPAIVKLLNQPNQWPLVKATIGLIRNLALCPANHAPLQEAAVIPRLVQLLVKAHQDAQRHVAAGTQQPYTDGVRMEEIVEGCTGALHILARDPMNRMEIFRLNTIPLFVQLLYSSVENIQRVAAGVLCELAQDKEAADAIDAEGASAPLMELLHSRNEGTATYAAAVLFRISEDKNPDYRKRVSVELTNSLFKHDPAAWEAAQSMIPINEPYGDDMDATYRPMYSSDVPLDPLEMHMDMDGDYPIDTYSDGLRPPYPTADHMLA
With B2, the binding result (with eGFP-Axin1; with 3xFLAG-eGFP-Axin1; in test [1]) was “binds” in each case.

B3: α-catenin (CTNNA2) (protein, UniProt P26232 1-953)
chain: MTSATSPIILKWDPKSLEIRTLTVERLLEPLVTQVTTLVNTSNKGPSGKKKGRSKKAHVLAASVEQATQNFLEKGEQIAKESQDLKEELVAAVEDVRKQGETMRIASSEFADDPCSSVKRGTMVRAARALLSAVTRLLILADMADVMRLLSHLKIVEEALEAVKNATNEQDLANRFKEFGKEMVKLNYVAARRQQELKDPHCRDEMAAARGALKKNATMLYTASQAFLRHPDVAATRANRDYVFKQVQEAIAGISNAAQATSPTDEAKGHTGIGELAAALNEFDNKIILDPMTFSEARFRPSLEERLESIISGAALMADSSCTRDDRRERIVAECNAVRQALQDLLSEYMNNTGRKEKGDPLNIAIDKMTKKTRDLRRQLRKAVMDHISDSFLETNVPLLVLIEAAKSGNEKEVKEYAQVFREHANKLVEVANLACSISNNEEGVKLVRMAATQIDSLCPQVINAALTLAARPQSKVAQDNMDVFKDQWEKQVRVLTEAVDDITSVDDFLSVSENHILEDVNKCVIALQEGDVDTLDRTAGAIRGRAARVIHIINAEMENYEAGVYTEKVLEATKLLSETVMPRFAEQVEVAIEALSANVPQPFEENEFIDASRLVYDGVRDIRKAVLMIRTPEELEDDSDFEQEDYDVRSRTSVQTEDDQLIAGQSARAIMAQLPQEEKAKIAEQVEIFHQEKSKLDAEVAKWDDSGNDIIVLAKQMCMIMMEMTDFTRGKGPLKNTSDVINAAKKIAEAGSRMDKLARAVADQCPDSACKQDLLAYLQRIALYCHQLNICSKVKAEVQNLGGELIVSGTGVQSTFTTFYEVDCDVIDGGRASQLSTHLPTCAEGAPIGSGSSDSSMLDSATSLIQAAKNLMNAVVLTVKASYVASTKYQKVYGTAAVNSPVVSWKMKAPEKKPLVKREKPEEFQTRVRRGSQKKHISPVQALSEFKAMDSF
B3: the binding result with eGFP-Axin1 and with 3xFLAG-eGFP-Axin1 was “binds” in each case.

B4: 8-catenin (CTNND1) (protein, UniProt O60716 1-968)
chain: MDDSEVESTASILASVKEQEAQFEKLTRALEEERRHVSAQLERVRVSPQDANPLMANGTLTRRHQNGRFVGDADLERQKFSDLKLNGPQDHSHLLYSTIPRMQEPGQIVETYTEEDPEGAMSVVSVETSDDGTTRRTETTVKKVVKTVTTRTVQPVAMGPDGLPVDASSVSNNYIQTLGRDFRKNGNGGPGPYVGQAGTATLPRNFHYPPDGYSRHYEDGYPGGSDNYGSLSRVTRIEERYRPSMEGYRAPSRQDVYGPQPQVRVGGSSVDLHRFHPEPYGLEDDQRSMGYDDLDYGMMSDYGTARRTGTPSDPRRRLRSYEDMIGEEVPSDQYYWAPLAQHERGSLASLDSLRKGGPPPPNWRQPELPEVIAMLGFRLDAVKSNAAAYLQHLCYRNDKVKTDVRKLKGIPVLVGLLDHPKKEVHLGACGALKNISFGRDQDNKIAIKNCDGVPALVRLLRKARDMDLTEVITGTLWNLSSHDSIKMEIVDHALHALTDEVIIPHSGWEREPNEDCKPRHIEWESVLTNTAGCLRNVSSERSEARRKLRECDGLVDALIFIVQAEIGQKDSDSKLVENCVCLLRNLSYQVHREIPQAERYQEAAPNVANNTGPHAASCFGAKKGKDEWFSRGKKPIEDPANDTVDFPKRTSPARGYELLFQPEVVRIYISLLKESKTPAILEASAGAIQNLCAGRWTYGRYIRSALRQEKALSAIADLLTNEHERVVKAASGALRNLAVDARNKELIGKHAIPNLVKNLPGGQQNSSWNFSEDTVISILNTINEVIAENLEAAKKLRETQGIEKLVLINKSGNRSEKEVRAAALVLQTIWGYKELRKPLEKEGWKKSDFQVNLNNASRSQSSHSYDDSTLPLIDRNQKSDKKPDREEIQMSNMGSNTKSLDNNYSTPNERGDHNRTLDRSGDLGDMEPLKGTTPLMQDEGQESLEEELDVLVLDDEGGQVSYPSMQKI
On to B4, for which the binding result with 3xFLAG-eGFP-Axin1 is on record as “binds”.
